Taken from: PubChem BioAssay AID1259284 (Sanger Institute, 2017)

Screen: 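siRNA screen across the kinome seeking partners for BYL719, cetuximab or trametinib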 (primary screen)
Cells: SW48 human colorectal cancer cells
Knock-down reagent: siRNA pool against human genes
Treatment: anchor drug BYL719 at 1 µM, cetuximab at 5 µg/ml or trametinib at 10 nM, or DMSO vehicle alone
Measurement: 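Viability scaled to non-targeting control pool, robust z-score from controls, and synergy scores for each drug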
Reading the numbers: robust z-score, no drug: higher = more cells survive knock-down
Rule for the call: 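a knock-down is essential if viability without drug gives a robust z-score under -3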
Calls: active = essential without drug; inactive = no change without drug
The whole screen tested 794 reagents; this is an unselected part. Over the whole deposit, 16 (2%) got an active call. 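Calls concern knock-down without drug only; drug synergy was judged apart, with scores above 0.15 taken as synergy.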 Entries without a mark were called inactive. Further read-outs or replicates are left out here. Reagent sequences are not shown. Not stated in the record: the amount of reagent, the time to read-out.

EPHB6 [SID152155826] showed robust z-score, no drug 0.426. EPHB1 [SID152152600] showed robust z-score, no drug 0.426. Knock-down of MGA [SID135624287] resulted in: robust z-score, no drug -2.48. With knock-down of NEK5 [SID135624240], the screen gave robust z-score, no drug 0.426. Knock-down of DYRK2 [SID152156553] came out at: robust z-score, no drug 0.385. Against INSRR [SID56479015], the entry reads robust z-score, no drug 0.426.

After knock-down of TCF12 [SID134311750], the screen gave robust z-score, no drug 0.319. Silencing of CKS2 [SID56479182] gave: robust z-score, no drug 0.426. For GSK3B [SID56478468], the values are robust z-score, no drug 0.426. For CAMK2B [SID135620913], the entry reads robust z-score, no drug 0.426. PCK2 [SID56479157] gave robust z-score, no drug 0.426. For TAOK2 [SID57288958], the values are robust z-score, no drug 0.426.

PIM3 [SID135625114] scored robust z-score, no drug 0.0209. After knock-down of RPS6KA2 [SID135620862], the record shows robust z-score, no drug -0.0216. For LYN [SID135620625], the entry reads robust z-score, no drug 0.426. After knock-down of PRKCB [SID56478724], the screen gave robust z-score, no drug 0.426. With knock-down of EPHA3 [SID152156000], the record shows robust z-score, no drug -0.295. Depletion of TGFBR1 [SID152153272] resulted in: robust z-score, no drug 0.426.

For TTBK2 [SID152155925], the entry reads robust z-score, no drug -0.702.

A run of entries taken from the entries so far, for reference:
MGA [SID135624287] | robust z-score, no drug: -2.48
NEK5 [SID135624240] | robust z-score, no drug: 0.426
